This is one part of the list.
target: T1, OsSMF1 (Oryza sativa, UniProt Q6ZLB0 1-436); assay: protein-binding microarray (RPBM); PBS, 2% BSA, 51.3 ng/ul salmon testes DNA, 50 uM zinc acetate, 200 nM TF, 25 C, 1 h; high values mean tight binding; settings: protein: recombinant; tags: N-terminal polyhistidine and DsRed monomer fusion (pET32a); chain copies: 2; label: CyDye5-dUTP incorporated in the synthesized complementary strand; 3' TTTTT single-stranded linker to array surface; dsDNA, one strand shown
T1 sequence: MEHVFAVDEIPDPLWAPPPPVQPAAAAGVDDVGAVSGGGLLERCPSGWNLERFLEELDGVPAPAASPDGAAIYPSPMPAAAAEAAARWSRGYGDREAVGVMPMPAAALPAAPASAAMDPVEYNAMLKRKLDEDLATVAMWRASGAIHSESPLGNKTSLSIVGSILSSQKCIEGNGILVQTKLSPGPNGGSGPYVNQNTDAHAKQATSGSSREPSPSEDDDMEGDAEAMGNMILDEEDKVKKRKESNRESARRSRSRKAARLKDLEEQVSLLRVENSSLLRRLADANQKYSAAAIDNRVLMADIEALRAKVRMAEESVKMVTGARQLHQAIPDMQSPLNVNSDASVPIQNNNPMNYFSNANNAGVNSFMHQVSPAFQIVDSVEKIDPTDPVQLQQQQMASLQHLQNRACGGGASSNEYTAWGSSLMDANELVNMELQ
How it was run: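 Binding signal is defined as the fluorescence intensity of each feature in arbitrary units, read on an Axon 4000B scanner. Transcription factors with N-terminal polyhistidine and DsRed fusions came from E. coli BL21-CodonPlus and were purified on Ni–NTA. They were incubated at 200 nM for 1 h at 25 °C on a custom Agilent array that had been made double-stranded with Cy5-dUTP, with 50 µM zinc acetate present, and the array was washed.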

With “AGTGGTGGTACTTCATCAGGACTGTCATGCAAATGCTTTGCGGAGTCACCTAGTGCAG” as the sequence, how does the binding signal read?
Its binding signal is 4700 fluorescence intensity (a.u.).

“CATCGACCACATCCTCGCGACGTCGCGTCGCGCAAGCTAGCGGAGTCACCTAGTGCAG” was tested. Which binding signal did it give?
Its binding signal is 3410 fluorescence intensity (a.u.).

With “CTGGGAAATAGTGCTGCAGAGTCACTAGTTAGATCGAAATCGGAGTCACCTAGTGCAG” as the sequence, how does the binding signal read?
Its binding signal is 3980 fluorescence intensity (a.u.).

With “AGGCAGCCCATGCTTGTTCTCTCGATGTGGTCAGCAGTAGCGGAGTCACCTAGTGCAG” as the sequence, how does the binding signal read?
The binding signal was 3710 fluorescence intensity (a.u.).

How did the binding signal turn out when “GTGTTTCATCCGTCACAGGTGATTTTGTCATCAGTGACCACGGAGTCACCTAGTGCAG” was run?
Its binding signal is 3580 fluorescence intensity (a.u.).

How did the binding signal turn out when “TCCACAAAATTTCTAAAGGACATACGGTGACACTTGGCATCGGAGTCACCTAGTGCAG” was run?
The binding signal was 3450 fluorescence intensity (a.u.).

Which binding signal does the source give for “ACGGCGCGGCGGGGCGACCAGGAGGGGCGGGGTGGCGCGGCGGAGTCACCTAGTGCAG” here?
The binding signal was 4060 fluorescence intensity (a.u.).

Which binding signal does the source give for “AAACAACACCAAAGCAAAATGTGCAGGACTGTTTTACATACGGAGTCACCTAGTGCAG” here?
Its binding signal is 25600 fluorescence intensity (a.u.).

Which binding signal does the source give for “GGACTTATTCCTTGCGTGGCCTTCTCCACCACCTTTCTTCCGGAGTCACCTAGTGCAG” here?
Its binding signal is 6260 fluorescence intensity (a.u.).

Which binding signal does the source give for “GTCCAATTTAATGCTGACGTTGCTGATGGAATGCCGTGGACGGAGTCACCTAGTGCAG” here?
The binding signal was 10500 fluorescence intensity (a.u.).

How did the binding signal turn out when “GGCTATGCAGAGGATAAAGATGACGCGATCGAACTGTAGTCGGAGTCACCTAGTGCAG” was run?
The binding signal was 4150 fluorescence intensity (a.u.).

For “AATGCTGCAAATACAACCAGTCAAGAATACAATGAGTCACCGGAGTCACCTAGTGCAG”, which binding signal is on record?
The binding signal was 4350 fluorescence intensity (a.u.).

Which binding signal does the source give for “GGTGGCCTCCATGACCTGTCTGGATTGAGGCGCTGTCGAGCGGAGTCACCTAGTGCAG” here?
The binding signal was 3370 fluorescence intensity (a.u.).

“TTGAAGGGTTGATCAAATTTTGTTCAACCATGCAAGTGCACGGAGTCACCTAGTGCAG” was tested. Which binding signal did it give?
Its binding signal is 4160 fluorescence intensity (a.u.).

“TCCAAATGTGACGTGTCTTGAAAGGCTTGAGATCCTTTTGCGGAGTCACCTAGTGCAG” was tested. Which binding signal did it give?
Its binding signal is 12200 fluorescence intensity (a.u.).

Which binding signal does the source give for “CTGCTTTAGTAGTTCTTACGTGGAAGGTTTGTTCGGAGTACGGAGTCACCTAGTGCAG” here?
Its binding signal is 9910 fluorescence intensity (a.u.).

How did the binding signal turn out when “TATTCAGACGTGTGTATCCAACACACGTGTATGCGCGTTACGGAGTCACCTAGTGCAG” was run?
The binding signal was 10800 fluorescence intensity (a.u.).

For “GGTGGAACTGGTGAAATGTGAATAGTACAAACTATCAATGCGGAGTCACCTAGTGCAG”, which binding signal is on record?
Its binding signal is 3270 fluorescence intensity (a.u.).

For “GATATGGAGACATATGTATCTGACAGCACAGCACTGCCTGCGGAGTCACCTAGTGCAG”, which binding signal is on record?
The binding signal was 3940 fluorescence intensity (a.u.).

Which binding signal does the source give for “TTGCTTGCGAGCAAAGGTGGAGTTCATGCCCTCATCATATCGGAGTCACCTAGTGCAG” here?
Its binding signal is 3710 fluorescence intensity (a.u.).

With “GCTCGTACACGTCCCTCCTCCGCCTTTATTCCCTCGATATCGGAGTCACCTAGTGCAG” as the sequence, how does the binding signal read?
Its binding signal is 7140 fluorescence intensity (a.u.).

How did the binding signal turn out when “CCACCGGCTACCGCGGGTGGGGTTTGGGTGCGCGTGGCCCCGGAGTCACCTAGTGCAG” was run?
Its binding signal is 3590 fluorescence intensity (a.u.).

How did the binding signal turn out when “CGATCCGGAGTCCACGCCGGCACGCCGGTGGCAGCTCGCCCGGAGTCACCTAGTGCAG” was run?
Its binding signal is 4700 fluorescence intensity (a.u.).

With “GTTGCTTAGATTCGGTTTCTGATATAATCTGACTTGTACACGGAGTCACCTAGTGCAG” as the sequence, how does the binding signal read?
Its binding signal is 3410 fluorescence intensity (a.u.).

“GATGCAGAGGAGTTGGCCTGGACACGGCGGTCGGACGCCTCGGAGTCACCTAGTGCAG” was tested. Which binding signal did it give?
The binding signal was 3530 fluorescence intensity (a.u.).

Which binding signal does the source give for “GCGCGACGGCGGCCATCGTCGTCATCAACCCCAACAATCCCGGAGTCACCTAGTGCAG” here?
Its binding signal is 4180 fluorescence intensity (a.u.).

Which binding signal does the source give for “CCACTGCAGCACACCGACACGTGACACGTACACCCTCCCGCGGAGTCACCTAGTGCAG” here?
The binding signal was 12000 fluorescence intensity (a.u.).

How did the binding signal turn out when “ACCCTTAGTTGATTTACAAATTCCACGTGCACCGAAGTGGCGGAGTCACCTAGTGCAG” was run?
Its binding signal is 7760 fluorescence intensity (a.u.).

With “CAGGTTTACACACTATATATGAAGTTGCACTACATATTTTCGGAGTCACCTAGTGCAG” as the sequence, how does the binding signal read?
Its binding signal is 3710 fluorescence intensity (a.u.).

“GTACAGTACATGTGTACTTTGATAGATCAATTCTTCCTAACGGAGTCACCTAGTGCAG” was tested. Which binding signal did it give?
The binding signal was 3620 fluorescence intensity (a.u.).

With “CTCGTCCTTCCACACCACGTCCAGGTCATTTCCGCCTCCTCGGAGTCACCTAGTGCAG” as the sequence, how does the binding signal read?
The binding signal was 7510 fluorescence intensity (a.u.).

“GGCGTATTCCAAAAGCCTTGGCCACCATTATTGCGTGGCACGGAGTCACCTAGTGCAG” was tested. Which binding signal did it give?
Its binding signal is 6820 fluorescence intensity (a.u.).

Which binding signal does the source give for “TGGTCATAATCTCGCACCATCCACGTCGGCGTCGGCGTCGCGGAGTCACCTAGTGCAG” here?
Its binding signal is 10200 fluorescence intensity (a.u.).

How did the binding signal turn out when “CGTGCTTGGTCACAGTCACCCGATGATTTTGTCCGGTCTCCGGAGTCACCTAGTGCAG” was run?
The binding signal was 4520 fluorescence intensity (a.u.).

Which binding signal does the source give for “GCGAGGATCTTGCCGAGGTCGCTGGTGGGAGTGACGAGCACGGAGTCACCTAGTGCAG” here?
Its binding signal is 4320 fluorescence intensity (a.u.).

With “TCTCTTCCTCGCTCACTCCTCCCAGCGTCCTCGCAGGAGCCGGAGTCACCTAGTGCAG” as the sequence, how does the binding signal read?
Its binding signal is 4890 fluorescence intensity (a.u.).

How did the binding signal turn out when “TGCTTTCCTCTCCAACCACGACCGCACCGCATCCCCTCCTCGGAGTCACCTAGTGCAG” was run?
Its binding signal is 3250 fluorescence intensity (a.u.).

How did the binding signal turn out when “TTTGTCCTACGTGGCGTACGCGTGGCAATCCAGTCATAATCGGAGTCACCTAGTGCAG” was run?
The binding signal was 20400 fluorescence intensity (a.u.).

With “GCGAACAGCCGCCGCTTCCAGTCATCCTCTTTGTGTGAGCCGGAGTCACCTAGTGCAG” as the sequence, how does the binding signal read?
Its binding signal is 3630 fluorescence intensity (a.u.).

With “CGCCGCCACCACTAGCTCGCTTCATTTCCACCGCACGCACCGGAGTCACCTAGTGCAG” as the sequence, how does the binding signal read?
Its binding signal is 3330 fluorescence intensity (a.u.).

With “GCCAACGCCGTGCCGTGTCCATCTACCGCCGCCCACAACTCGGAGTCACCTAGTGCAG” as the sequence, how does the binding signal read?
The binding signal was 3290 fluorescence intensity (a.u.).

With “TTTCATCCTCTCGTTGTAACACGCAACGTGTTCAAACGTGCGGAGTCACCTAGTGCAG” as the sequence, how does the binding signal read?
Its binding signal is 5740 fluorescence intensity (a.u.).
